Publication doi:10.64898/2025.12.09.692923
No constants are given. Whether binding was seen depends on the method and setting. In cells and extracts the contact can be indirect. Binding can be weak; no strength is given. Where a sequence is shown, tags or fusion partners need not be part of it.

Protein sequences, listed by entry. Tags and fused reporters are not part of them. Lines headed by an entry give the natural chain unless they say otherwise; changes in a name come on top.
UniProt Q9M8T0: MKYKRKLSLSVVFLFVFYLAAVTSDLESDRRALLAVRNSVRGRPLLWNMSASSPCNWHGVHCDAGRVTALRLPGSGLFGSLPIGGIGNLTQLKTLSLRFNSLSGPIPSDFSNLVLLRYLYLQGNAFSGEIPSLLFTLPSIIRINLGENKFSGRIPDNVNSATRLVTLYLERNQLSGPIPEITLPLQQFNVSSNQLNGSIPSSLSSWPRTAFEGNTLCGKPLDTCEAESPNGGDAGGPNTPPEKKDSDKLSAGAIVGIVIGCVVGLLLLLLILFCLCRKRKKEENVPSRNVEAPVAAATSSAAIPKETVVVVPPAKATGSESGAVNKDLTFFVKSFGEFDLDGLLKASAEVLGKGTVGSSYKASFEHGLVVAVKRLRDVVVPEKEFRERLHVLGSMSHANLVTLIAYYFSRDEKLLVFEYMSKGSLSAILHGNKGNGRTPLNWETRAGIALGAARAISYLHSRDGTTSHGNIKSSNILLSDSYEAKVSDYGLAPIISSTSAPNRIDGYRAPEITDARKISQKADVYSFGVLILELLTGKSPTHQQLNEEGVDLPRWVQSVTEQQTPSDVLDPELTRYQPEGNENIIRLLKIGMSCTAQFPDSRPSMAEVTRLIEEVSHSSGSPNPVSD

Biological target: T1, CRK2-mVenus (Cysteine-rich receptor-like kinase CRK2 fused to mVenus) (Arabidopsis thaliana) (UniProt Q9CAL3)
T1 sequence: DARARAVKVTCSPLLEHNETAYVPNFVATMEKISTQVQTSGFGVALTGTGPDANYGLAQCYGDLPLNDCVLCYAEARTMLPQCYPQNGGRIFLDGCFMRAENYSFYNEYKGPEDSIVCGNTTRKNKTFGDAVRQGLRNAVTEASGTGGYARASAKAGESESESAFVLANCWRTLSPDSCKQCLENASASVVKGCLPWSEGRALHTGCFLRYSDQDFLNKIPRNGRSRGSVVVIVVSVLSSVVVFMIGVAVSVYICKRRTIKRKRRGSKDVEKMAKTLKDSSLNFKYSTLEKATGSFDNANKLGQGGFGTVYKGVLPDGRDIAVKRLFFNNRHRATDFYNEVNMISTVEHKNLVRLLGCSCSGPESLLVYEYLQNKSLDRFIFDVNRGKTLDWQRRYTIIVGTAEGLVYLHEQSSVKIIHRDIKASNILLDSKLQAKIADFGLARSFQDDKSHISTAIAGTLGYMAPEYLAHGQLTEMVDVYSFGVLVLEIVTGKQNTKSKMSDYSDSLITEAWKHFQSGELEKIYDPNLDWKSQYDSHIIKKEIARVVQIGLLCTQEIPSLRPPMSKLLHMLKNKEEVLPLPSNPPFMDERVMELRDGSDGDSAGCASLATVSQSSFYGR
Experiment: FRET or BRET

For “QSK1-mCherry (Qian Shou kinase 1 fused to mCherry) (from UniProt Q9M8T0) (receptor)”, the binding was “binds”.
